In all, about 300,000 compounds went through this assay and about 3,700 (1.2%) were called active. Inconclusive results, whose numbers are uncertain, are shown with a selection of clear calls. Calls follow the shape of the full dose curve; tested in HEK293 cells. Potencies beside an inconclusive call are fits to weak or partial responses and may not hold up.
test: qHTS for Inhibitors of binding or entry into cells for Lassa Virus; conditions: Lassa virus pseudotype entry inhibition, cell reporter; series mostly up to 37.9 µM; also: nearly all actives have a fitted effect of over 50% in size
Potency is read from the fitted curve at half-maximal effect.

| Structure (SMILES) | Potency |
| --- | --- |
| NC(=O)c1nsc(C(=O)N(c2cccc(F)c2)C(C(=O)NCC2CCCO2)c2cccs2)c1N (stereo unspecified) | inconclusive: 35.5 µM [inhibitor, single point] |
| COc1ccc(NC(=O)CSc2ccc(NC(C)=O)cc2)cc1S(=O)(=O)N1CCCCC1 | inconclusive: 25.1 µM [inhibitor, single point] |
| Cc1cc(C(=O)COc2cccnc2[N+](=O)[O-])c(C)n1Cc1cccs1 | inconclusive: 10 µM [inhibitor, partial curve, poor fit] |
| C/C(=N/NC(=O)CNC(=O)C1COc2ccccc2O1)c1ccc2c(c1)OCCO2 (stereo unspecified) | inactive |
| COc1ccccc1C(=O)O/N=C(/c1ccncc1)c1ccc([N+](=O)[O-])cc1 | inconclusive: 3.16 µM [inhibitor, partial curve, poor fit] |
| CC1CCN(Cc2c(C(=O)N/N=C/c3cc(Br)ccc3O)nnn2-c2nonc2N)CC1 | inconclusive: 6.31 µM [inhibitor, full curve] |
| Cc1ccc(Cc2nnc(SCC(=O)Nc3ccccc3)n(N)c2=O)cc1 | inconclusive: 10 µM [inhibitor, partial curve, poor fit] |
| COc1cc(C(=O)OC(C)C(=O)Nc2ccc3c(c2)OCCO3)cc(OC)c1OC (stereo unspecified) | inconclusive: 8.91 µM [inhibitor, partial curve, poor fit] |
| N#CC(=C(O)COC(=O)CCCNC(=O)c1ccc(Cl)cc1)c1nc2ccccc2[nH]1 | inactive |
| CC(C)C(NC(=O)CSc1ccc(Cl)cc1)C(C)C | inactive |
| CC(C)c1ccc(N(C(=O)c2ccco2)C(C(=O)NC2CCCC2)c2cccnc2)cc1 (stereo unspecified) | inconclusive: 7.08 µM [inhibitor, partial curve, poor fit] |
| COC(=O)c1cc(NC(=S)NCc2ccc(Cl)cc2)cc(C(=O)OC)c1 | inactive |
| CCOC(=O)n1ccc(C(=O)Nc2ccccc2F)n1 | inconclusive: 29.1 µM [activator, single point] |
| COc1ccc(CNC(=O)CCS(=O)(=O)c2cc3c(cc2Cl)NC(=O)CO3)cc1 | inconclusive: 0.891 µM [inhibitor, full curve, poor fit] |
| Cc1ccc(CN=Cc2[nH]c3ccc(Br)c(Cl)c3c2O)cc1 | inconclusive: 14.6 µM [inhibitor, partial curve, poor fit] |
| Cn1cnnc1SCCOc1ccc(Cl)cc1 | inconclusive: 35.5 µM [inhibitor, single point] |
| CCc1cccc(C)c1Nc1c(-c2cccs2)nc2ncccn12 | inactive |
| CC(C)CNC(=O)CSc1nc(-c2cccs2)cc(C(F)(F)F)n1 | inconclusive: 0.82 µM [activator, single point] |
| Cc1cc(C)c(S(=O)(=O)NCC(c2ccco2)S(=O)(=O)c2ccccc2)c(C)c1 (stereo unspecified) | inconclusive: 35.5 µM [inhibitor, single point] |
| CCOC(=O)c1ccccc1NC(=O)Cc1ccc(OC)c(S(=O)(=O)N2CCOCC2)c1 | inactive |
| CC1(C)Cc2c(sc(NC(=O)c3ccc(Br)o3)c2C#N)CO1 | inconclusive: 5.17 µM [inhibitor, full curve, poor fit] |
| CN(C)c1ccc(C(=S)NCc2ccco2)cc1 | inconclusive: 25.1 µM [inhibitor, single point] |
| Cc1nc2ccccc2n1/N=C/c1ccc([N+](=O)[O-])o1 | inconclusive: 23.1 µM [inhibitor, single point] |
| CS(=O)(=O)CCNCc1ccc(-c2ccc3ncnc(Nc4ccc(OCc5cccc(C(F)(F)F)c5)cc4)c3c2)o1 | active: 28.1 µM |

| Structure (SMILES) | Potency |
| --- | --- |
| Clc1ccc(SCCCCN2CCOCC2)cc1 | inactive |
| O=C(NCc1ccco1)c1cc(-c2ccc(Cl)cc2)on1 | inactive |
| COc1ccc(-c2cc(C(F)F)n3ncc(C(=O)N4CCN(C)CC4)c3n2)cc1 | inactive |
| Cc1ccc(NC(=O)C2CCC(CNS(=O)(=O)c3cccs3)CC2)cc1C (stereo unspecified) | inactive |
| O=C(CNCc1cccs1)Nc1ccc(OC(F)(F)F)cc1 | inactive |
| Cc1ccc(NC(=O)c2oc3ccccc3c2NC(=O)C2CCCCC2)cc1 | inactive |
| CCCCCC(=O)N1C[C@H](O)[C@@H](n2cc(C3CC3)nn2)C[C@H]1c1ccc(C)cc1 | inconclusive: 0.353 µM [inhibitor, full curve, poor fit] |
| O=c1cc(C(F)(F)F)oc2c1ccc1ccccc12 | inconclusive: 0.103 µM [activator, full curve, poor fit] |
| COc1ccc(-c2cc(C(=O)Oc3ccc(Br)cc3)c3ccccc3n2)cc1 | inactive |
| O=C(N=Nc1c(O)[nH]c2ccccc12)c1cccs1 | inconclusive: 5.62 µM [inhibitor, full curve, poor fit] |
| Cc1cc(C)nc(N2CCCC(C(=O)NCCc3ccc(F)cc3)C2)n1 (stereo unspecified) | inactive |
| CCc1ccc2c(c1)c(=O)c(S(=O)(=O)c1ccc(F)cc1)cn2CC(=O)Nc1ccccc1OC | inactive |
| Cc1nn(C)cc1CNC(=O)Nc1ccc(Cl)c(Cl)c1 | inconclusive: 2.31 µM [activator, single point] |
| Cc1ccc(CNC(=O)/C=C/c2ccc(Br)o2)cc1 | inconclusive: 0.631 µM [inhibitor, partial curve, poor fit] |
| Clc1ccccc1CSc1snnc1-c1ccccc1 | inconclusive: 32.6 µM [activator, single point] |
| CC(C)Sc1nc(N)c2c3c(sc2n1)CN(C)CC3 | inactive |
| COc1cccc(C2C(=O)N(C3CCCCC3)CC(=O)N2CCc2ccc(OC)c(OC)c2)c1 (stereo unspecified) | inactive |
| Cc1nc2nc(CNC(=O)OC(C)(C)C)nn2c(C)c1CCC(=O)NCc1ccccc1Cl | inactive |
| C=C1C(=O)OC2C1CCC(C)C1C=CC(=O)C12C (stereo unspecified) | inconclusive: 31.6 µM [inhibitor, single point] |
| COc1cc(C)ccc1OCCOc1c(C)cccc1Cl | inactive |
| Cc1csc(NC(=O)CSc2nc3ccccc3c3c2CCCC3)n1 | inconclusive: 15.8 µM [inhibitor, single point] |
| Cc1nc(SCC(=O)N2CCOCC2)c2c(C)c(C)sc2n1 | inconclusive: 6.31 µM [inhibitor, partial curve, poor fit] |
| CC(C(=O)NCc1ccccc1)n1ccc2cc(S(=O)(=O)N3CCCC3)ccc21 (stereo unspecified) | inactive |
| CCCCn1c(SC(C)C(=O)NCC2CCCO2)nc2cc(C(=O)OC)ccc2c1=O (stereo unspecified) | inactive |

| Structure (SMILES) | Potency |
| --- | --- |
| Cc1nc(CC(=O)Nc2ccc(C(N)=O)cc2)cs1 | inactive |
| O=C(Nc1cccc(Cl)c1)N1N=CCC1c1ccccc1 (stereo unspecified) | inactive |
| Cc1ccc2c(c1)/C(=N/OC(=O)c1ccc(F)cc1)CCS2 | inactive |
| O=C(Cn1nnc(-c2ccccc2)n1)N/N=C/c1cccc([N+](=O)[O-])c1 | inconclusive: 1.58 µM [inhibitor, partial curve, poor fit] |
| CC(C)CC(NC(=O)c1ccc(Cl)cc1)C(=O)OCC(=O)c1ccc2c(c1)NC(=O)CO2 (stereo unspecified) | inconclusive: 31.6 µM [inhibitor, single point] |
| COc1ccc(C(=O)NC2CC2)cc1OC1CCN(Cc2cc(C)cc(C)c2)CC1 | inconclusive: 11.2 µM [inhibitor, single point] |
| CC(C)c1ccc(NC(=O)CN2C(=O)C3(SCC(=O)N3c3ccc(F)cc3)c3ccccc32)cc1 (stereo unspecified) | inactive |
| COc1cc(C=NO)nc(-c2ccccn2)c1 | active: 1.26 µM |
| CC12CCC(O)CC1CCC1C2CCC2(C)C(C3=CC(=O)OC3)CCC12O (stereo unspecified) | active: 0.447 µM |
| CN(C)CCCN(C(=O)c1ccc2c(c1)CCCC2)c1nc2cc3c(cc2s1)OCO3 | inconclusive: 17.8 µM [inhibitor, partial curve, poor fit] |
| Cc1ccc(N2CCn3c2nc2c3c(=O)n(Cc3cccc(Cl)c3)c(=O)n2C)cc1C | inactive |
| COc1ccc2cc(CN(CCc3ccccc3)Cc3nnnn3CC3CCCO3)c(=O)[nH]c2c1 (stereo unspecified) | inconclusive: 29.1 µM [inhibitor, single point] |
| COc1ccc(-c2nn(-c3ccccc3)cc2/C=C(\C#N)C(N)=O)cc1[N+](=O)[O-] | inconclusive: 2.24 µM [activator, partial curve, poor fit] |
| O=C1CN(C(=O)c2ccc(Cl)nc2)c2ccccc2N1 | inconclusive: 2 µM [inhibitor, partial curve, poor fit] |
| O=C(NCc1ccc2c(c1)OCO2)C(=O)NC1CCCCC1 | inactive |
| O=c1[nH]c(C2CCN(S(=O)(=O)/C=C/c3ccccc3)CC2)nc2c1nnn2Cc1ccc(F)cc1 | inconclusive: 20 µM [inhibitor, partial curve, poor fit] |
| CCCCN=Cc1sc2ccc(OCC)cc2c1O | inactive |
| C=CCn1c(SCC(=O)N2CCCCCC2)nc2ccccc2c1=O | inconclusive: 7.08 µM [inhibitor, partial curve, poor fit] |
| COCCNC(=O)/C(C#N)=C/c1cc(C)n(C2CCCCC2)c1C | inconclusive: 14.1 µM [inhibitor, single point] |
| CCOc1ccccc1C(=O)N(Cc1ccccc1)Cc1cc2cc3c(cc2[nH]c1=O)OCCO3 | inconclusive: 29.1 µM [inhibitor, single point] |
| O=C(Nc1nc2ccc(S(=O)(=O)N3CCCCC3)cc2s1)C1CCCO1 (stereo unspecified) | inconclusive: 29.1 µM [inhibitor, single point] |
| COc1ccc(C2C=C(Nc3ccccc3)C(=O)N2c2ccccc2)cc1OC (stereo unspecified) | inactive |
| CS(=O)(=O)c1cnc(-c2ccccc2)nc1-c1ccc(Cl)c(Cl)c1 | inconclusive: 6.31 µM [inhibitor, partial curve, poor fit] |

2 of the compounds above, field by field:
Cc1nc(CC(=O)Nc2ccc(C(N)=O)cc2)cs1
  Potency: inactive
Cc1ccc2c(c1)/C(=N/OC(=O)c1ccc(F)cc1)CCS2
  Potency: inactive

2 entries picked at random from those above, as already listed:

| Structure (SMILES) | Potency |
| --- | --- |
| O=c1[nH]c(C2CCN(S(=O)(=O)/C=C/c3ccccc3)CC2)nc2c1nnn2Cc1ccc(F)cc1 | inconclusive: 20 µM [inhibitor, partial curve, poor fit] |
| CCCCN=Cc1sc2ccc(OCC)cc2c1O | inactive |

Source: PubChem BioAssay AID540256 (National Center for Advancing Translational Sciences (NCATS), 2011)
